# Experimental data as given in the supplement of paper PMC7877785.
# ± gives the uncertainty stated by the source. Many of these values have a large error.
# Test: self-splicing fitness, log relative to wild type (ln ratio); higher = more splicing; Tetrahymena group I intron in knt gene, E. coli kanamycin selection, DiMSum; sequences stand for … in CUCUCU…GGAGGGAAAAGUUAUCAGGCAUGCACCUGGUAGCUAGUCUUUAAACCAAUAGAUUGCAUCGGUUUAAAAGGCAAGACCGUCAAAUUGCGGGAAAGGGGUCAACAGCCGUUCAGUACCAAGUCUCAGGGGAAACUUUGAGAUGGCCUUGCAAAGGGUAUGGUAAUAAGCUGACGGACAUGGUCCUAACCACGCAGCCAAGUCCUAAGUCAACAGAUCUUCUGUUGAUAUGGAUGCAGUUCACAGACUAAAUGUCGGUCGGGGAAGAUGUAUUCUUCUCAUAAGAUAUAGUCGGACCUCUCCUUAAUGGGAGCUAGCGGAUGAAGUGAUGCAACACUGGAGCCGCUGGGAACUAAUUUGUAUGCGAAAGUAUAUUGAUUAGUUUUGGAGUACUCGUGGUCG
# How it was run: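 Pooled colonies went to amplicon sequencing on an Illumina HiSeq 2500 after six replicate transformations. The plates were LB agar with 100 μg/mL carbenicillin, 50 μM IPTG and 0.2% rhamnose, with or without 25 μg/mL kanamycin, incubated overnight at 37°C or 30°C. The E. coli BL21(DE3) library had all eight P1ex-region intron nucleotides randomised, the intron placed in the knt kanamycin-resistance gene on pET-22b(+). DiMSum fitness is the error-weighted combination of replicate fold changes, kanamycin against none, normalised to wild type.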
Sequence,self-splicing fitness (ln) (30 °C),self-splicing fitness (ln) (37 °C)
CUUGAGCAAUAUUACGGCUC,-1.93 ± 0.54,–
UACGAGCAAUAUUACGCAAC,-2.85 ± 0.22,-2.19 ± 0.26
UCCUAGCAAUAUUACGCAUG,–,-3.22 ± 0.52
GCGGAGCAAUAUUACGAGAA,-1.52 ± 1.2,–
CUUGAGCAAUAUUACGAGCC,–,-2.48 ± 0.77
CAGUAGCAAUAUUACGUCAC,–,-1.83 ± 0.79
UAAUAGCAAUAUUACGGUUC,–,-2.69 ± 0.62
AUUAAGCAAUAUUACGUAUA,-1.48 ± 0.16,-1.35 ± 0.14
AGGAAGCAAUAUUACGAAGA,-2.9 ± 0.34,-1.61 ± 0.32
AUUGAGCAAUAUUACGGUAG,–,-3.86 ± 0.59
AUCGAGCAAUAUUACGAUUC,–,-2.4 ± 0.63
CUGGAGCAAUAUUACGCUGC,–,-2.35 ± 0.77
CGCUAGCAAUAUUACGGGUU,-2.73 ± 0.082,-2.04 ± 0.11
UCCGAGCAAUAUUACGUAAA,–,-3.53 ± 1
AACAAGCAAUAUUACGGGGC,-4.29 ± 0.53,–
GGACAGCAAUAUUACGAUUU,0.167 ± 0.047,0.417 ± 0.065
UCGAAGCAAUAUUACGAUAC,–,-3.48 ± 1
GUCAAGCAAUAUUACGUUUG,-5.29 ± 0.59,–
CCGAAGCAAUAUUACGCAAC,-4.03 ± 0.59,-2.63 ± 0.54
CGACAGCAAUAUUACGAAGA,-2.29 ± 0.17,-2.09 ± 0.16
GUGGAGCAAUAUUACGCCUG,–,-3.12 ± 0.61
AACAAGCAAUAUUACGUUGC,-2.83 ± 0.18,-3.21 ± 0.32
GCAUAGCAAUAUUACGAAGC,-2.63 ± 0.54,-0.744 ± 0.64
CAUUAGCAAUAUUACGGACC,-2.91 ± 0.61,-3.81 ± 0.72
UCUGAGCAAUAUUACGGCUA,-3.33 ± 0.42,-2.58 ± 0.29
GCGAAGCAAUAUUACGCCGC,0.062 ± 1.1,–
GGGGAGCAAUAUUACGAGUC,–,-2.54 ± 0.83

Sequence,self-splicing fitness (ln) (30 °C),self-splicing fitness (ln) (37 °C)
GCGGAGCAAUAUUACGCGGU,–,-2.25 ± 0.78
CCUGAGCAAUAUUACGCCCU,-4.36 ± 0.73,–
UGUGAGCAAUAUUACGCUUC,–,-4.25 ± 1
UCAGAGCAAUAUUACGCCUU,-4.63 ± 1,–
GGGUAGCAAUAUUACGGAAC,-0.98 ± 0.11,-1.49 ± 0.19
CUCUAGCAAUAUUACGCCUA,-3.21 ± 0.67,-3.39 ± 0.6
UAAUAGCAAUAUUACGUAAC,-4.03 ± 0.51,–
UGGCAGCAAUAUUACGCGCC,-5.63 ± 0.5,–
GAUGAGCAAUAUUACGGUGC,-4.57 ± 0.72,–
GGCCAGCAAUAUUACGUGAA,-1.67 ± 0.066,-0.271 ± 0.077
UCAGAGCAAUAUUACGCCUG,–,-3.09 ± 0.6
GUGCAGCAAUAUUACGCCAC,-1.34 ± 0.73,–
GUUGAGCAAUAUUACGGAAU,–,-0.927 ± 0.71
ACUCAGCAAUAUUACGGAUU,-0.597 ± 0.055,0.0271 ± 0.076
UAGGAGCAAUAUUACGACAG,–,-0.778 ± 1.4
AAAGAGCAAUAUUACGACCC,–,-2.3 ± 1.1
UCUUAGCAAUAUUACGGCCU,–,-2.15 ± 0.55
UGGCAGCAAUAUUACGUCAC,-3.7 ± 0.78,-2.55 ± 0.83
AUGCAGCAAUAUUACGCAGG,-3.71 ± 0.14,-2.13 ± 0.12
AGGGAGCAAUAUUACGGAGU,-3.81 ± 0.59,-2.28 ± 0.79
UUCAAGCAAUAUUACGACCC,-2.42 ± 1.2,-0.288 ± 0.52
CCACAGCAAUAUUACGGACA,-3.12 ± 0.21,-2.51 ± 0.18
UAUAAGCAAUAUUACGCGCC,–,0.417 ± 1.2
GUGUAGCAAUAUUACGUGGC,–,-3.08 ± 0.6
GGCUAGCAAUAUUACGAUCC,–,-0.566 ± 0.87
CCGCAGCAAUAUUACGAUGU,-3.21 ± 0.14,-2.83 ± 0.17

# Quoted at random: three entries already listed
Sequence,self-splicing fitness (ln) (30 °C),self-splicing fitness (ln) (37 °C)
UCCGAGCAAUAUUACGUAAA,–,-3.53 ± 1
UAGGAGCAAUAUUACGACAG,–,-0.778 ± 1.4
CAUUAGCAAUAUUACGGACC,-2.91 ± 0.61,-3.81 ± 0.72
